Results published in patent publication US20250368734A1.
Results are given in words; binding and its absence hold for the method and conditions named. A result given as binding can be weak or reduced; the word gives no strength.

Biological target: cynomolgus monkey GPRC5D (cynomolgus monkey)
Assay: FACS, HEK293T-cynoGPRC5D cells

B1: ch12G12C2 (antibody, V domains shown)
VH: QIQLVQSGPELKMPGETVKISCKASGYTFTTYGLSWVKQAPGKGLKWMGWINTFSGVPIYADDFKGRFAFSLETSASTAYLQINNLKNEDTATYFCARWGIRQRGDYWGQGATLTVSS
VL: QIVLTQSPAIMSASPGEKVTMTCSASSSVSYLHWYQQKSGTSPKRWIYDTSKLASGVPVRFSGSGSETSYSLTISSMEAEDAATYYCQQWTSNPPTFGGGTKLEIK
- binding: binds

B2: ch20C4E1 (antibody, V domains shown)
VH: EVRLVESGGALVRPGGSLKLSCAASGFTFSDYGMHWVRQAPEKGLEWIAFISSVSFTIYYADTVKGRFTISRDNAKNTLFLQMTSLRSEDTALYYCTRLGPHWYFDVWGTGTTVTVSS
VL: DVVLTQTPLSLPVSLGDQASISCRSSQSLVYSNGNTYLHWFLQKPGQSPQLLIYKVSNRFSGVPDRFSGSGSGTDFTLKISRVEAEDLGVYFCSQSTPVPTFGGGTKLEIK
- binding: binds

B3: ch15D6G2 (antibody, V domains shown)
VH: EVQLVESGGDLVKPGGYLRLSCAASGFTFSSHGMSWVRQTPDKRLEWVATISSGGRNTYYPDSVKGRFTISRDNAKNILYLQMSSLKSEDTAMFYCTRHSGDAMDYWGQGTSVTVSS
VL: DILLTQSPAILSVSPGERVSFSCRASQSIGTNIHWYQQRTNGSPRLLIKYASESISGIPSRFSGSGSGTDFTLSINSVESEDIADYYCQQSKSWPTFGGGTKLEIK
- binding: binds

B4: ch28H9C12 (antibody, V domains shown)
VH: EVQLVESGGGLVKPGGSLKLSCAASGFTFSDYGMHWVRQAPEKGLEWVAYISSGSSTIYYADTVKGRFTISRDNAKNTLFLQMTSLRSEDTAIYYCVRRPWYFDVWGTGTTVTVSS
VL: DVLMTQTPLSLPVSLGDQASISCRSSQSIVHSNGNTYLQWYLQKPGQSPKLLIYKVSNRFSGVPDRFSGSGSGTDFTLKISRLEAEDLGVYYCFQGSHVPFTFGSGTKLEIK
- binding: binds

B5: ch26E2H6 (antibody, V domains shown)
VH: EVQLVESGGDLVKPGGSLKLSCAASGFTFSSYGMSWVRQTPDKRLEWVATISSGGSYTYYPDSVKGRFTISRDNAKNTLYLQMSSLKSEDTAMYYCARHATDYWGQGTTLTVSS
VL: QIVLTQSPAIMSASPGEKVTMTCSASSSVSYMHWYQQKSGTSPKRWIYDTSKLASGVPARFSGSGSGTSYSLTISSMEAEDAATYYCQQWSSNPLTFGAGTKLELK
- binding: binds

B6: ch98A3A8 (antibody, V domains shown)
VH: EVQLQQSGPELVKPGASVKMSCKASGYTFTYYVTHWVRQKPGQGLEWIGYINPYNDGTMFNEKFKGKATLTSDKSSSTAYMEFSSLTSEDSAVFYCARGGVRRYFDVWGAGTTVTVSS
VL: DIQMTQSPSSLSASLGERVSLTCRASQDIGSNLNWLQQKPDGTIKRLIYATSSLDSGVPKRFSGSRSGSDYSLTINSLESEDFVDYYCLQYASFPYTFGGGTKLEIK
- binding: binds

B7: ch96C9E7 (antibody, V domains shown)
VH: EVQLQQSGPELVKPGASVKMSCKASGYTFTYYILHWVKQKPGQGLEWIGYFNPYNDGNKFNERFRGKATLTSDKSSSTAYMELNSLTSEDSAVYFCARGGVRRYFDVWGAGTTVTVSS
VL: DIQMTQSPSSLSASLGERVSLTCRASQDIGSNLNWLQQEPDGTIKRLISATFSLDSGVPKRFSGSRSGSDYSLTISSLESEDFVNYYCLQYASFPYTFGGGTKLEIK
- binding: binds

B8: ch90G6H3 (antibody, V domains shown)
VH: QAYLQQSGAELVRSGASVKMSCKASGYTFTSYIMHWVKQTPGQGLEWIGYIYPGNGGTNYNQKFKDKATLSADTSSSTAYMQINSLTSEDSAVYFCARWGLRQGFAYWGQGTLVSVSA
VL: DIVMTQSQKFMSTSVGDRVSVTCKASQNVGGNVAWYQQKPGQSPKALIYSTSYRNSGVPDRFTGSGSGTDFTLTISNVQSEDLAEYFCQQYNSYPFTFGSGTKLEIR
- binding: binds

B9: ch89F11E3 (antibody, V domains shown)
VH: QVQLQQSGAELARPGASVKMSCKASGYTFTSSTIHWVKQRPGQGLAWIGYIVPSTGYTNYNQKFKDKATLTADKSSSTAYMQLTSLTSEDSAVYYCARSDGYPFGYSMAYWGQGTSVTVSS
VL: DIQMNQSPSSLSASLGDTITITCHASQNINVWLSWYHQKPGNIPKLLIYKASNLHTGVPSRFSGSGSGTGFTLTISRLQPEDIATYYCQQGQSYPFTFGSGTKLEIK
- binding: binds

B10: ch87A3G8 (antibody, V domains shown)
VH: QVQLKESGPGLVAPSQSLSITCTVSGFSLSSYSVYWVRQPPGKGLEWLGVIWAGGSTNYNSALMSRLSINKDKSKSQVFLKMNSLQTDDSAIYYCAMRWLPRGLDFWGQGTSVTVSS
VL: DIVMTQSHKFMSTSVGDRVSITCKASQDVGTAVAWYQQKPGQSPKLLIYWASTRHTGVPDRFTGSGSGTDFTLTISNVQSEDLADYFCQQYSTYYTFGGGTKLEIK
- binding: binds

B11: ch110B4H5 (antibody, V domains shown)
VH: EVQLQQSGPELVKPGASVKMSCKASGYTFTFYIMHWVKQKPGQGPEWIGYINPYNDGTKYNAKFKGKATLSSDRSSSTAYMELSSLTSEDSAVYYCARGGVRRYFDVWGAGTPVTVSS
VL: DIQMTQSPSSLSASLGERVSLTCRSSQDIGSNLNWLQQEPDGTIKRLIYATFSLDSGVPKRFSGSRSGSHYSLTISSLESEDFVVYYCLQYGSFPYTFGGGTKLEIK
- binding: binds

B12: ch108C4C12 (antibody, V domains shown)
VH: EVQLQQSGPELVKPGASVKMSCKASGYTFTSYVIHWVKQKTGQGLEWIGYFNPYNDGTKYNEEFKGKATLTSDKSSNTAYMELNSLTSDDSAVYFCARGGVRRYFDVWGAGTTVTVSS
VL: DIQMTQSPSSLSASLGERVSLTCRASQDIGSNLNWLQQEPDGTIKRLIYATFGLDSGVPKRFSGSRSGSDYSLTISSLESEDFVDYYCQQYASFPYTFGGGTKLEIK
- binding: binds

B13: ch101B3G3 (antibody, V domains shown)
VH: EVQLQQSGPELVKPGASMKISCKASGYSFTGYTMNWVKQSHGKNLEWIGLINPYNGGTRYNQKFKDKATLTVDKSSSTAYMELLSLTSEDSAVYYCARWLLRYAMDYWGQGTSVTVSS
VL: DIVMTQSQKFMSTSVGDRVSITCKASQNVGNAVAWYQQKPGHSPKLLISSASNRKNGVPDRFTGSGSGTDFTLTVSNMQSEDLADYFCQQYSDSSWTFGGGTKLEIK
- binding: binds
